# In article PMC5841321:
# These are yes or no findings as the source states them, for the method shown. In cells and extracts the contact can be indirect. A yes stands for co-enrichment or nearness to the bait. Other partners may have been found.
# T1: E3 ubiquitin-protein ligase Midline-1 (UniProt O15344)
# T1 sequence: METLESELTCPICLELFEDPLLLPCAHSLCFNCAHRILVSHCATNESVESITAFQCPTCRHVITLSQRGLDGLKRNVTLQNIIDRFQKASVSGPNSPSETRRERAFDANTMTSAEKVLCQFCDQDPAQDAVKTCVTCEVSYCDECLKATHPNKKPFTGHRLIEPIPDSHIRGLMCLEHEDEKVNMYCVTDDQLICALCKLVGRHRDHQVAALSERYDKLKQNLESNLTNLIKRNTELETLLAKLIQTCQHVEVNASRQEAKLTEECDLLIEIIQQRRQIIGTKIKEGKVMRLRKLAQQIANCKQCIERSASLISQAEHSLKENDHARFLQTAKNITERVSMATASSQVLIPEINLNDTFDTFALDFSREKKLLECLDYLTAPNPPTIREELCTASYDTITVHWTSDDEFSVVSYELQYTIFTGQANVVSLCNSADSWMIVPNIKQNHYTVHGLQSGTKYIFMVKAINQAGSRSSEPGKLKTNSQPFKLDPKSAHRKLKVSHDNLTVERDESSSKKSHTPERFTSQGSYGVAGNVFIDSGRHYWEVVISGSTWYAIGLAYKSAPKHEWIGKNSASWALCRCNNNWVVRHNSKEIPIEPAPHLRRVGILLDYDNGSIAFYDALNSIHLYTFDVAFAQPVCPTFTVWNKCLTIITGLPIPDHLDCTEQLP
# Target: T1, E3 ubiquitin-protein ligase Midline-1
# Experiment: affinity purification with mass spectrometry; MID1-FLAG expressed in HEK293T, lysate in TKM buffer (20 mM Tris pH 7.4, 100 mM KCl, 5 mM MgCl2, 0.5% NP40, 1 mM DTT), anti-FLAG M1 agarose overnight at 4 °C, 6 washes; untransfected cells as control; Q-Exactive, MaxQuant, 1% FDR
row,binding,Binder
1,binds,"Guanine nucleotide-binding protein-like 3 (protein, UniProt Q9BVP2 1-549) MKRPKLKKASKRMTCHKRYKIQKKVREHHRKLRKEAKKRGHKKPRKDPGVPNSAPFKEALLREAELRKQRLEELKQQQKLDRQKELEKKRKLETNPDIKPSNVEPMEKEFGLCKTENKAKSGKQNSKKLYCQELKKVIEASDVVLEVLDARDPLGCRCPQVEEAIVQSGQKKLVLILNKSDLVPKENLESWLNYLKKELPTVVFRASTKPKDKGKITKRVKAKKNAAPFRSEVCFGKEGLWKLLGGFQETCSKAIRVGVIGFPNVGKSSIINSLKQEQMCNVGVSMGLTRSMQVVPLDKQITIIDSPSFIVSPLNSSSALALRSPASIEVVKPMEAASAILSQADARQVVLKYTVPGYRNSLEFFTVLAQRRGMHQKGGIPNVEGAAKLLWSEWTGASLAYYCHPPTSWTPPPYFNESIVVDMKSGFNLEELEKNNAQSIRAIKGPHLANSILFQSSGLTNGIIEEKDIHEELPKRKERKQEEREDDKDSDQETVDEEVDENSSGMFAAEETGEALSEETTAGEQSTRSFILDKIIEEDDAYDFSTDYV"
2,binds,"Exosome component 10 (protein, UniProt Q01780 1-885) MAPPSTREPRVLSATSATKSDGEMVLPGFPDADSFVKFALGSVVAVTKASGGLPQFGDEYDFYRSFPGFQAFCETQGDRLLQCMSRVMQYHGCRSNIKDRSKVTELEDKFDLLVDANDVILERVGILLDEASGVNKNQQPVLPAGLQVPKTVVSSWNRKAAEYGKKAKSETFRLLHAKNIIRPQLKFREKIDNSNTPFLPKIFIKPNAQKPLPQALSKERRERPQDRPEDLDVPPALADFIHQQRTQQVEQDMFAHPYQYELNHFTPADAVLQKPQPQLYRPIEETPCHFISSLDELVELNEKLLNCQEFAVDLEHHSYRSFLGLTCLMQISTRTEDFIIDTLELRSDMYILNESLTDPAIVKVFHGADSDIEWLQKDFGLYVVNMFDTHQAARLLNLGRHSLDHLLKLYCNVDSNKQYQLADWRIRPLPEEMLSYARDDTHYLLYIYDKMRLEMWERGNGQPVQLQVVWQRSRDICLKKFIKPIFTDESYLELYRKQKKHLNTQQLTAFQLLFAWRDKTARREDESYGYVLPNHMMLKIAEELPKEPQGIIACCNPVPPLVRQQINEMHLLIQQAREMPLLKSEVAAGVKKSGPLPSAERLENVLFGPHDCSHAPPDGYPIIPTSGSVPVQKQASLFPDEKEDNLLGTTCLIATAVITLFNEPSAEDSKKGPLTVAQKKAQNIMESFENPFRMFLPSLGHRAPVSQAAKFDPSTKIYEISNRWKLAQVQVQKDSKEAVKKKAAEQTAAREQAKEACKAAAEQAISVRQQVVLENAAKKRERATSDPRTTEQKQEKKRLKISKKPKDPEPPEKEFTPYDYSQSDFKAFAGNSKSKVSSQFDPNKQTPSGKKCIAAKKIKQSVGNKSMSFPTGKSDRGFRYNWPQR"
3,binds,"Putative ATP-dependent RNA helicase DHX30 (protein, UniProt Q7L2E3 1-1194) MFSLDSFRKDRAQHRQRQCKLPPPRLPPMCVNPTPGGTISRASRDLLKEFPQPKNLLNSVIGRALGISHAKDKLVYVHTNGPKKKKVTLHIKWPKSVEVEGYGSKKIDAERQAAAAACQLFKGWGLLGPRNELFDAAKYRVLADRFGSPADSWWRPEPTMPPTSWRQLNPESIRPGGPGGLSRSLGREEEEDEEEELEEGTIDVTDFLSMTQQDSHAPLRDSRGSSFEMTDDDSAIRALTQFPLPKNLLAKVIQIATSSSTAKNLMQFHTVGTKTKLSTLTLLWPCPMTFVAKGRRKAEAENKAAALACKKLKSLGLVDRNNEPLTHAMYNLASLRELGETQRRPCTIQVPEPILRKIETFLNHYPVESSWIAPELRLQSDDILPLGKDSGPLSDPITGKPYVPLLEAEEVRLSQSLLELWRRRGPVWQEAPQLPVDPHRDTILNAIEQHPVVVISGDTGCGKTTRIPQLLLERYVTEGRGARCNVIITQPRRISAVSVAQRVSHELGPSLRRNVGFQVRLESKPPSRGGALLFCTVGILLRKLQSNPSLEGVSHVIVDEVHERDVNTDFLLILLKGLQRLNPALRLVLMSATGDNERFSRYFGGCPVIKVPGFMYPVKEHYLEDILAKLGKHQYLHRHRHHESEDECALDLDLVTDLVLHIDARGEPGGILCFLPGWQEIKGVQQRLQEALGMHESKYLILPVHSNIPMMDQKAIFQQPPVGVRKIVLATNIAETSITINDIVHVVDSGLHKEERYDLKTKVSCLETVWVSRANVIQRRGRAGRCQSGFAYHLFPRSRLEKMVPFQVPEILRTPLENLVLQAKIHMPEKTAVEFLSKAVDSPNIKAVDEAVILLQEIGVLDQREYLTTLGQRLAHISTDPRLAKAIVLAAIFRCLHPLLVVVSCLTRDPFSSSLQNRAEVDKVKALLSHDSGSDHLAFVRAVAGWEEVLRWQDRSSRENYLEENLLYAPSLRFIHGLIKQFSENIYEAFLVGKPSDCTLASAQCNEYSEEEELVKGVLMAGLYPNLIQVRQGKVTRQGKFKPNSVTYRTKSGNILLHKSTINREATRLRSRWLTYFMAVKSNGSVFVRDSSQVHPLAVLLLTDGDVHIRDDGRRATISLSDSDLLRLEGDSRTVRLLKELRRALGRMVERSLRSELAALPPSVQEEHGQLLALLAELLRGPCGSFDVRKTADD"

# Continued, binder first:
row,Binder,binding
1,"Aldehyde dehydrogenase X, mitochondrial (protein, UniProt P30837 18-517) RYSSAAALPSPILNPDIPYNQLFINNEWQDAVSKKTFPTVNPTTGEVIGHVAEGDRADVDRAVKAAREAFRLGSPWRRMDASERGRLLNRLADLVERDRVYLASLETLDNGKPFQESYALDLDEVIKVYRYFAGWADKWHGKTIPMDGQHFCFTRHEPVGVCGQIIPWNFPLVMQGWKLAPALATGNTVVMKVAEQTPLSALYLASLIKEAGFPPGVVNIITGYGPTAGAAIAQHVDVDKVAFTGSTEVGHLIQKAAGDSNLKRVTLELGGKSPSIVLADADMEHAVEQCHEALFFNMGQCCCAGSRTFVEESIYNEFLERTVEKAKQRKVGNPFELDTQQGPQVDKEQFERVLGYIQLGQKEGAKLLCGGERFGERGFFIKPTVFGGVQDDMRIAKEEIFGPVQPLFKFKKIEEVVERANNTRYGLAAAVFTRDLDKAMYFTQALQAGTVWVNTYNIVTCHTPFGGFKESGNGRELGEDGLKAYTEVKTVTIKVPQKNS",binds
2,"Erlin-2 (protein, UniProt O94905 1-339) MAQLGAVVAVASSFFCASLFSAVHKIEEGHIGVYYRGGALLTSTSGPGFHLMLPFITSYKSVQTTLQTDEVKNVPCGTSGGVMIYFDRIEVVNFLVPNAVYDIVKNYTADYDKALIFNKIHHELNQFCSVHTLQEVYIELFDQIDENLKLALQQDLTSMAPGLVIQAVRVTKPNIPEAIRRNYELMESEKTKLLIAAQKQKVVEKEAETERKKALIEAEKVAQVAEITYGQKVMEKETEKKISEIEDAAFLAREKAKADAECYTAMKIAEANKLKLTPEYLQLMKYKAIASNSKIYFGKDIPNMFMDSAGSVSKQFEGLADKLSFGLEDEPLETATKEN",binds
3,"Constitutive coactivator of PPAR-gamma-like protein 1 (protein, UniProt Q9NZB2 1-1118) MGVQGFQDYIEKHCPSAVVPVELQKLARGSLVGGGRQRPPQTPLRLLVDADNCLHRLYGGFYTDWVSGGQWNHMLGYLAALAKACFGGNIELFVFFNGALEKARLHEWVKRQGNERQTAQQIVSHVQNKGTPPPKVWFLPPVCMAHCIRLALIRFHVKVAQSIEDHHQEVIGFCRENGFHGLVAYDSDYALCNIPYYFSAHALKLSRNGKSLTTSQYLMHEVAKQLDLNPNRFPIFAALLGNHILPDEDLASFHWSLLGPEHPLASLKVRAHQLVLPPCDVVIKAVADYVRNIQDTSDLDAIAKDVFQHSQSRTDDKVIRFKRAIGYYSATSKPMSFHPPHYLAARPGPFGMPGMVPPHVPPQMLNIPQTSLQAKPVAPQVPSPGGAPGQGPYPYSLSEPAPLTLDTSGKNLTEQNSYSNIPHEGKHTPLYERSSPINPAQSGSPNHVDSAYFPGSSTSSSSDNDEGSGGATNHISGNKIGWEKTGSHSEPQARGDPGDQTKAEGSSTASSGSQLAEGKGSQMGTVQPIPCLLSMPTRNHMDITTPPLPPVAPEVLRVAEHRHKKGLMYPYIFHVLTKGEIKIAVSIEDEANKDLPPAALLYRPVRQYVYGVLFSLAESRKKTERLAFRKNRLPPEFSPVIIKEWAAYKGKSPQTPELVEALAFREWTCPNLKRLWLGKAVEDKNRRMRAFLACMRSDTPAMLNPANVPTHLMVLCCVLRYMVQWPGARILRRQELDAFLAQALSPKLYEPDQLQELKIENLDPRGIQLSALFMSGVDMALFANDACGQPIPWEHCCPWMYFDGKLFQSKLLKASREKTPLIDLCDGQADQAAKVEKMRQSVLEGLSFSRQSHTLPFPPPPALPFYPASAYPRHFGPVPPSQGRGRGFAGVCGFGGPYGETVATGPYRAFRVAAASGHCGAFSGSDSSRTSKSQGGVQPIPSQGGKLEIAGTVVGHWAGSRRGRGGRGPFPLQVVSVGGPARGRPRGVISTPVIRTFGRGGRYYGRGYKNQAAIQGRPPYAASAEEVAKELKSKSGESKSSAMSSDGSLAENGVMAEEKPAPQMNGSTGDARAPSHSESALNNDSKTCNTNPHLNALSTDSACRREAALEAAVLNKEE",binds
